# In PubChem BioAssay AID493014 (National Center for Advancing Translational Sciences (NCATS), 2011):
# Where “and” joins values, the source holds several entries; their conditions need not be identical. Identical values can stand only once. The list shows a part of the results. Further columns of the screen follow, without active or inactive calls. The list favours compounds with an active or inconclusive main result. Words in brackets tell the shape of the fitted curve; partial curves, single points and poor fits give uncertain potencies.
# Experiment: qHTS Assay to Find Inhibitors of Chronic Active B-Cell Receptor Signaling
# Settings: ABC-DLBCL IkBa-CBG/CBR reporter, luminescence ratio (green luciferase fused to IkBa over red control in TMD8 lymphoma cells), 4 h
# Outline: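 TMD8 ABC-DLBCL cells carrying doxycycline-inducible green luciferase fused to IkappaBalpha plus unfused red luciferase were exposed to compounds (up to 46 uM) for 4 hrs at 37C. Activity came from the overlap-corrected green/red luminescence ratio.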
# [1] = measured here: CBR red luminescence, cell number
# [2] = measured here: IkBa-CBG green luminescence
Compound,AC50 [1],AC50 [2]
CC1CCc2nn(CC(=O)Nc3c(F)cc(F)cc3Br)cc2C1 (stereo not drawn),"29.1 µM [falling, single point]","32.6 µM [rising, partial curve, poor fit]"
Cc1cc(C(=O)N/N=C/c2cccc([N+](=O)[O-])c2)c(C)o1,"1.26 µM [falling, full curve, poor fit]",
CC(C)c1ccc(NC(=O)c2ccc(NS(C)(=O)=O)cc2)cc1,"12.6 µM [falling, partial curve]",
CC1(C(=O)N/N=C/c2cc3c(cc2Br)OCO3)CC1(Br)Br (stereo not drawn),"7.94 µM [falling, partial curve]",
Cc1sc2nc(C(C)Sc3nnc(C)n3-c3ccccc3)[nH]c(=O)c2c1C (stereo not drawn),"13 µM [rising, single point]",
COc1ccc(N(C(=O)c2ccn[nH]2)C(C(=O)NC2CCCC2)c2ccc(F)cc2)cc1 (stereo not drawn),"35.5 µM [falling, partial curve, poor fit]",
Cc1cc(N2CCN(c3ccccn3)CC2)n2c(nc3ccccc32)c1C#N,"12.6 µM [rising, partial curve, poor fit]",
CCOC(=O)N/N=C/c1ccc(N(CC)CC)cc1O,"25.9 µM [rising, single point]",
CCC(C)c1ccccc1OCC(=O)NN1C(=O)c2ccccc2C1=O (stereo not drawn),"14.1 µM [rising, partial curve]","17.8 µM [falling, single point]"
O=C(C#Cc1ccccc1)NCc1ccccc1F,"15.8 µM [falling, single point]",
O=C(NC1=C(Nc2ccc(Cl)cc2)C(=O)c2ccccc2C1=O)c1ccccc1,"18.4 µM [rising, partial curve, poor fit]",
C[C@H]1CN([C@@H](C)CO)C(=O)c2cc(NC(=O)C3CCCCC3)ccc2O[C@H]1CN(C)C(=O)Nc1ccc2c(c1)OCO2,"0.0517 µM [rising, full curve, poor fit]",
CC(C)N(C(=O)[C@H]1C[C@H](CC(=O)NC(C)(C)C)C(=O)N2CCc3c([nH]c4ccc(Cl)cc34)[C@]12C)C(C)C,"18.4 µM [falling, single point]",
Cc1ccc(NC(=S)NC(=O)C2CC2)cc1Cl,"15.8 µM [falling, partial curve]","35.5 µM [falling, partial curve, poor fit]"
Cc1ccc(S(=O)(=O)n2nc(OC(=O)c3cccs3)cc2N)cc1,"10 µM [falling, partial curve, poor fit]",
COc1ccc2oc(=O)c(C(=O)O)cc2c1,"18.4 µM [falling, partial curve]","29.1 µM [rising, partial curve, poor fit]"
Cc1cc(C)c(/C=C(\C#N)C(N)=S)c(C)c1,"9.2 µM [falling, partial curve]",
CCCc1nnc(NC(=O)CCC(=O)NCCc2ccc(OC)c(OC)c2)s1,,"20.6 µM [falling, partial curve, poor fit]"
Cc1cc(OCC(=O)N(Cc2cccs2)C2CCS(=O)(=O)C2)ccc1Cl (stereo not drawn),"12.6 µM [falling, partial curve, poor fit]",
CCOC(=O)Cc1csc(NC(=O)c2csc3c2CCCC3)n1,"3.55 µM [falling, full curve]",
O=C1NC(=Nc2ccccc2)S/C1=C\c1ccccc1,"7.08 µM [falling, partial curve, poor fit]",
Cc1csc(NC(=O)c2oc3ccccc3c2C)n1,"0.517 µM [falling, full curve, poor fit]",
Cc1cc(C(=O)NCC2CCCCC2)ccc1[N+](=O)[O-],"6.31 µM [rising, single point]",
COc1cccc(N2CCN(C(=O)c3ccc(CSc4nc5ccncc5[nH]4)cc3)CC2)c1,"20.6 µM [falling, partial curve]",
CC(C)c1ccc(NC(=O)N2CCCC2C(=O)Nc2ccc(-n3cnnn3)cc2)cc1 (stereo not drawn),"11.2 µM [rising, partial curve, poor fit]",

Compound,AC50 [1],AC50 [2]
COc1cccc(/C=C/C(=O)N(C)CC(=O)Nc2ccc(Cl)c(C(F)(F)F)c2)c1,"23.1 µM [falling, single point]",
COc1ccc(Nc2nc(C(F)(F)F)nc(C)c2C#N)cc1,"29.1 µM [rising, single point]",
Cc1ccc(NC(=O)Nc2cccnc2)cc1NC(=O)Nc1cccnc1,"2.82 µM [falling, partial curve]",
Cc1ccc(O)c(-c2cc(C(=O)Nc3ccc(S(=O)(=O)Nc4nc(C)cc(C)n4)cc3)[nH]n2)c1,"2.06 µM [falling, full curve]",
Cc1ccc(NC(=O)c2nnn(-c3cc(C)cc(C)c3)c2N)cc1,"10 µM [falling, partial curve, poor fit]",
O=C(CCC(=O)OCc1ccc(Cl)cc1)Nc1cccc([N+](=O)[O-])c1,"0.282 µM [rising, full curve, poor fit]",
Cn1c(N)c(C(=O)COC(=O)c2ccc([N+](=O)[O-])o2)c(=O)n(C)c1=O,"35.5 µM [falling, single point]",
c1ccc(-n2nnc3cnccc32)cc1,"11.2 µM [falling, partial curve, poor fit]",
CCCCN(C)CCNC(=O)c1cc(-c2cccnc2)nc2ccc(S(=O)(=O)N3CCC(C)CC3)cc12,"2.82 µM [rising, full curve, poor fit] and 112 nM [rising, full curve, poor fit]",
CCOc1ccccc1NC(=O)CN1CCC(NC(=O)c2ccccc2)CC1,"5.62 µM [rising, full curve]",
CN(C(=O)COc1ccccc1)c1nnc(-c2ccncc2)s1,"7.31 µM [falling, partial curve]",
Nc1ccccc1Nc1cc(-c2cccc(Cl)c2)nn1-c1ccccc1,"29.1 µM [falling, single point]",
COc1ccc(-c2csc(NC(=O)c3ccccc3F)c2C(=O)O)cc1,"6.31 µM [falling, partial curve, poor fit]",
C=CCC[C@@H](Cc1ccc(F)cc1)C(=O)OC[C@H](C)NC(=O)[C@H](CC=C)CC(=O)N(CCO)Cc1ccccc1,"36.6 µM [falling, partial curve, poor fit]",
CCOc1ccc(C(=S)NC2CCCCC2)cc1OC,"12.6 µM [rising, partial curve]",
Cc1ccc(C2(C)NC(=O)N(CC(=O)Nc3ccc(Cl)c(S(=O)(=O)N4CCCCC4)c3)C2=O)cc1 (stereo not drawn),"14.6 µM [falling, single point]",
C#C[C@]1(O)CC[C@H]2[C@@H]3CCc4cc(OC)ccc4[C@H]3CC[C@@]21C,"6.51 µM [rising, single point]",
CN(N=Nc1ccc([N+](=O)[O-])cc1)c1ccccc1,"6.51 µM [rising, partial curve]",
O=C(Nc1sc2c(c1C(=O)O)CCC2)c1ccccc1Cl,"6.31 µM [falling, partial curve]",
O=C(Nc1nc2ccc(F)cc2s1)C1CCN(S(=O)(=O)c2cc([N+](=O)[O-])ccc2Cl)CC1,"7.31 µM [falling, partial curve]",
CCn1c(SCc2ccc(C(=O)Nc3cc(C)cc(C)c3)cc2)nnc1-c1ccncc1,"20.6 µM [falling, single point]",
c1ccc(-n2cnc3cc(NCc4ccco4)ccc32)cc1,"25.1 µM [falling, single point]",
CN(CCc1ccccc1)C(=O)CCc1nnc(Cc2ccc3c(c2)OCO3)o1,"15.8 µM [rising, partial curve, poor fit]",
CSCCC(NC(=O)COc1ccccc1)C(=O)OCCOc1ccc(C)cc1 (stereo not drawn),"2.06 µM [rising, full curve]",
C[n+]1cccc(C2C(C#N)=C(N)Oc3c2ccc2ccccc32)c1 (stereo not drawn),"7.94 µM [falling, partial curve, poor fit]",

Compound,AC50 [1],AC50 [2]
CC(C)CN(C(=O)CSc1nc2ccccc2o1)c1c(N)n(Cc2ccccc2)c(=O)[nH]c1=O,"23.1 µM [falling, partial curve, poor fit]",
Cc1ccc(C(NC(=O)N2CCCC2)C(Cl)Cl)cc1F (stereo not drawn),"11.2 µM [falling, partial curve]",
CCCCCc1ccc(OCCC[n+]2ccccc2)c(CCCCC)c1,"7.08 µM [falling, partial curve, poor fit]",
O=C(O)/C=C/c1cccc(OCc2ccccc2)c1,"8.91 µM [falling, partial curve]",
COc1ccc(C(C)=O)cc1CSc1nc2ccccc2c(=O)n1-c1cccc(C)c1,"0.326 µM [rising, full curve, poor fit]",
CC1=C(CC(=O)c2ccc(Cl)cc2)C(=O)c2ccccc2C1=O,"11.2 µM [falling, single point]",
Cc1nc2c(-c3ccc(F)cc3)cnn2c(N)c1-c1ccccc1,"35.5 µM [falling, single point]",
Cc1ccc(F)c(NC(=O)c2ccc(Cn3cc(Cl)cn3)cc2)c1,"35.5 µM [falling, single point]",
CCN(CC)c1ccc(/C=N/NC(=O)c2ccoc2C)cc1,"11.2 µM [falling, partial curve]",
Cc1ccc(C2C(C#N)=C(N)Oc3c2sc2ccccc32)o1 (stereo not drawn),"7.08 µM [falling, partial curve, poor fit]",
Cc1ccc(CNC(=O)c2cc(COc3c(F)cccc3F)on2)s1,"35.5 µM [falling, partial curve, poor fit]",
COc1cc(C(=O)N(Cc2cc3ccccc3[nH]c2=O)CC2CCCO2)cc(OC)c1OC (stereo not drawn),"2.82 µM [rising, partial curve, poor fit]",
N#Cc1cc(-c2ccccc2)oc1NC(=O)c1ccco1,"32.6 µM [falling, single point]",
CN(CC(=O)Nc1ccccc1Cl)C(=O)COC(=O)c1ccc([N+](=O)[O-])cc1Cl,"29.1 µM [rising, single point]",
C=CCNc1nc(N)c([N+](=O)[O-])c(NCc2ccccc2)n1,"22.4 µM [rising, partial curve, poor fit]",
CCCCN1C(=S)NC[C@@H]1Cc1cccc2ccccc12,"5.62 µM [rising, single point]",
CN1/C(=C\C=N\NC(=O)c2ccc(O)cc2)C(C)(C)c2ccccc21,"14.6 µM [falling, partial curve]",
Nc1ccc(C(=O)CC(=O)Nc2ccc(Cl)cc2)cc1,"28.2 µM [falling, single point]",
Cc1ccc(NC(=O)[C@@H]2CCCN2S(=O)(=O)c2ccccc2C(F)(F)F)cc1S(=O)(=O)N1CCOCC1,"16.4 µM [falling, single point]",
N#C/C(N=Nc1ccccc1O)=N\Nc1ccccc1O,"5.17 µM [falling, full curve, poor fit]",
Cc1ccc(Cl)cc1NC(=O)C1CCN(S(C)(=O)=O)CC1,"2.82 µM [rising, full curve, poor fit]",
COc1cccc(CNC(=O)c2cc3c(C)nc4ccccc4c3o2)c1,"25.9 µM [falling, single point]",
COc1ccc(Cn2c(C)nc([N+](=O)[O-])c2SCC(=O)O)cc1[N+](=O)[O-],"3.16 µM [rising, partial curve, poor fit]",
CCOc1ccccc1-c1nc(C(N)=O)c2[nH]c(=O)n(-c3cccc(C)c3)c2n1,"12.6 µM [falling, single point]",
